Measured data: PubChem BioAssay AID1224830 (NIAID, 2016)
This is one part, drawn at random, of about 18,000 reagents. About 2,900 of them (16%) count as active. 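Calls are made per well; low scores hint the gene aids the LPS response, high scores that it dampens it.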 Repeated entries: four replicate wells of each siRNA pool. No sequences are given here.

Screen: 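Regulators of TLR4 signalling towards TNF-alpha in macrophage-like cells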 (primary screen)
System: human THP-1 monocytic leukaemia cells, TNF dual-luciferase reporter clone, PMA-differentiated to macrophage-like cells
Reagent: siRNA pool against human genes, 50 nM
Timing: LPS for 4 h, given about 3 days after siRNA transfection
Treatment: bacterial LPS (TLR4 ligand), 10 ng/ml
Measurement: 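TNF firefly reporter luminescence divided by renilla, normalised to the plate median, then turned into a robust z-score for each replicate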
Reading the numbers: TNF reporter robust z-score: higher = stronger TNF reporter response to LPS
Call rule: 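a well is active when its z-score exceeds 2.8 or falls below -1.5; control wells carry no call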

target | TNF reporter robust z-score | outcome
STAT3 (GeneID 6774) | 0.38 | inactive
STAT3 (GeneID 6774) | 0.34 | inactive
STAT3 (GeneID 6774) | 0.45 | inactive
STAT3 (GeneID 6774) | 0.19 | inactive
TLN2 (GeneID 83660) | -1.3 | inactive
TLN2 (GeneID 83660) | -1.26 | inactive
TLN2 (GeneID 83660) | -1.31 | inactive
FUBP3 (GeneID 8939) | 0.28 | inactive
FUBP3 (GeneID 8939) | 0.11 | inactive
FUBP3 (GeneID 8939) | -0.4 | inactive
FUBP3 (GeneID 8939) | 0.4 | inactive
LUC7L2 (GeneID 51631) | 0.48 | inactive
LUC7L2 (GeneID 51631) | 0.36 | inactive
LUC7L2 (GeneID 51631) | 0.08 | inactive
LUC7L2 (GeneID 51631) | 0.63 | inactive
KRTAP23-1 (GeneID 337963) | -0.18 | inactive
KRTAP23-1 (GeneID 337963) | -0.49 | inactive
KRTAP23-1 (GeneID 337963) | -1.53 | active
KRTAP23-1 (GeneID 337963) | 1.24 | inactive
PLPP6 (GeneID 403313) | 0.07 | inactive
PLPP6 (GeneID 403313) | 0.72 | inactive
PLPP6 (GeneID 403313) | 0.23 | inactive
PLPP6 (GeneID 403313) | -0.27 | inactive
HMGB3 (GeneID 3149) | 0.43 | inactive
HMGB3 (GeneID 3149) | 0.48 | inactive
HMGB3 (GeneID 3149) | 1.39 | inactive
HMGB3 (GeneID 3149) | 1.78 | inactive
MORF4 (GeneID 10934) | -0.06 | inactive
MORF4 (GeneID 10934) | -0.37 | inactive
MORF4 (GeneID 10934) | -1.19 | inactive
MORF4 (GeneID 10934) | 0.14 | inactive

Next part; the last 5 above are carried over.
target | TNF reporter robust z-score | outcome
HMGB3 (GeneID 3149) | 1.78 | inactive
MORF4 (GeneID 10934) | -0.06 | inactive
MORF4 (GeneID 10934) | -0.37 | inactive
MORF4 (GeneID 10934) | -1.19 | inactive
MORF4 (GeneID 10934) | 0.14 | inactive
MMP26 (GeneID 56547) | 0.32 | inactive
MMP26 (GeneID 56547) | -0.25 | inactive
MMP26 (GeneID 56547) | -0.66 | inactive
MMP26 (GeneID 56547) | -0.32 | inactive
IL17F (GeneID 112744) | 0.36 | inactive
IL17F (GeneID 112744) | 0.89 | inactive
IL17F (GeneID 112744) | -1.02 | inactive
IL17F (GeneID 112744) | 0.68 | inactive
ADGRA3 (GeneID 166647) | 0.5 | inactive
ADGRA3 (GeneID 166647) | 1.54 | inactive
ADGRA3 (GeneID 166647) | 1.53 | inactive
ADGRA3 (GeneID 166647) | 0.21 | inactive
GRN (GeneID 2896) | 0.71 | inactive
GRN (GeneID 2896) | 0.44 | inactive
GRN (GeneID 2896) | -1.31 | inactive
GRN (GeneID 2896) | -1.72 | active
DLG3 (GeneID 1741) | -0.3 | inactive
DLG3 (GeneID 1741) | -0.62 | inactive
DLG3 (GeneID 1741) | -0.52 | inactive
DLG3 (GeneID 1741) | -0.36 | inactive
PSPC1 (GeneID 55269) | 0.85 | inactive
PSPC1 (GeneID 55269) | 1.29 | inactive
PSPC1 (GeneID 55269) | -0.18 | inactive
PSPC1 (GeneID 55269) | 1.18 | inactive
FUT1 (GeneID 2523) | 1.12 | inactive
FUT1 (GeneID 2523) | 0.68 | inactive
FUT1 (GeneID 2523) | 0.42 | inactive
FUT1 (GeneID 2523) | -0.32 | inactive
FAM171B (GeneID 165215) | -0.61 | inactive
FAM171B (GeneID 165215) | -0.62 | inactive
FAM171B (GeneID 165215) | -0.25 | inactive
FAM171B (GeneID 165215) | 3.22 | active
UBE2U (GeneID 148581) | -0.64 | inactive
UBE2U (GeneID 148581) | 0.17 | inactive
UBE2U (GeneID 148581) | 0.55 | inactive
UBE2U (GeneID 148581) | 0.43 | inactive
SLC18A1 (GeneID 6570) | 0.67 | inactive
SLC18A1 (GeneID 6570) | 0.34 | inactive
SLC18A1 (GeneID 6570) | 0.17 | inactive
SLC18A1 (GeneID 6570) | 1.9 | inactive
SORCS1 (GeneID 114815) | 1.41 | inactive
SORCS1 (GeneID 114815) | 1.67 | inactive
SORCS1 (GeneID 114815) | 1.02 | inactive
SORCS1 (GeneID 114815) | 2.25 | inactive
